{"source": "patent US9926581B2", "about": "“Fagopyritol synthase genes and uses thereof” (Cornell Research Foundation, Inc., priority 2002, dated 2018)", "key": {"[1]": {"tested_on": "immature soybean embryos", "test": "Embryo feeding experiments: cyclitols fed to immature soybean embryos, precocious maturation by slow drying, soluble carbohydrates in axis and cotyledons", "format": "in vivo, Glycine max (L.) Merrill"}, "[2]": {"tested_on": "buckwheat explants", "test": "Buckwheat explant feeding with 100 mM cyclitol in 1% sucrose for 5 days, soluble carbohydrates in embryos and leaf disks", "format": "in vivo, Fagopyrum esculentum", "details": "replicate values"}, "[3]": {"tested_on": "buckwheat embryos", "test": "Soluble carbohydrates in buckwheat embryos from seeds matured at 15, 22 or 30° C.", "format": "in vivo, Fagopyrum esculentum Moench", "details": "harvested at 28 DAP and dried 2 weeks at 12% RH, mean ± SE"}, "[4]": {"tested_on": "soybean explants", "test": "Soybean explant feeding 3 days with 50 mM cyclitol in 1% sucrose, slow drying time course, soluble carbohydrates in axis, cotyledon, seed coat and leaf"}, "[5]": {"details": "3 days transport of sucrose (1%) and D-chiro-inositol (50 mM), after 2 days slow drying, Rep 1"}, "[6]": {"details": "3 days transport of sucrose (1%) and D-chiro-inositol (50 mM), after 2 days slow drying, Rep 2"}, "[7]": {"details": "3 days transport of sucrose (1%) and D-chiro-inositol (50 mM), after 4 days slow drying, Rep 1"}, "[8]": {"details": "3 days transport of sucrose (1%) and D-chiro-inositol (50 mM), after 4 days slow drying, Rep 2"}, "[9]": {"details": "3 days transport of sucrose (1%) and D-chiro-inositol (50 mM), after 14 days slow drying, Rep 1"}, "[10]": {"details": "3 days transport of sucrose (1%) and D-chiro-inositol (50 mM), after 14 days slow drying, Rep 2"}, "[11]": {"details": "3 days transport of sucrose (1%) and D-chiro-inositol (50 mM), before slow drying, Rep 1"}, "[12]": {"details": "3 days transport of sucrose (1%) and D-chiro-inositol (50 mM), before slow drying, Rep 2"}, "[13]": {"details": "3 days transport of sucrose (1%) and D-pinitol (50 mM), after 2 days slow drying, Rep 1"}, "[14]": {"details": "3 days transport of sucrose (1%) and D-pinitol (50 mM), after 2 days slow drying, Rep 2"}, "[15]": {"details": "3 days transport of sucrose (1%) and D-pinitol (50 mM), after 4 days slow drying, Rep 1"}}, "note": "Several values for one entry are separate records, joined by “and”; a condition that tells them apart may be missing. Identical values can stand only once.", "data": [{"smiles": "OC[C@H]1O[C@H](OC2[C@@H](O)[C@H](O)C(O)[C@H](O)[C@@H]2O)[C@H](O)[C@@H](O)[C@H]1O", "note": "(stereo partly drawn) [Galactinol, galactinol, reference compound]", "values": [{"measurement": "increase in concentration after feeding D-chiro-inositol", "setting": "[1]; axis and cotyledons, concentration series, 14 days precocious maturation", "value": "did not increase"}, {"measurement": "change in accumulation after feeding 25 to 50 mM myo-inositol", "setting": "[1]; cotyledons", "value": "doubled"}, {"measurement": "decrease in concentration after feeding D-pinitol and D-chiro-inositol compared to D-pinitol alone", "setting": "[1]; cotyledons, 14 days", "value": 50, "unit": "%"}, {"measurement": "Soluble carbohydrates in embryos of seeds from buckwheat explants", "setting": "[2]; fed 100 mM D-chiro-inositol in 1% sucrose solution 5 days, 2 days slow drying", "value": "9.84 μg/embryo and 3.63 μg/embryo"}, {"measurement": "Soluble carbohydrates in embryos of seeds from buckwheat explants", "setting": "[2]; fed 100 mM D-chiro-inositol in 1% sucrose solution 5 days, 4 days slow drying", "value": "6.82 μg/embryo and 3.90 μg/embryo and 2.70 μg/embryo"}, {"measurement": "Soluble carbohydrates in embryos of seeds from buckwheat explants", "setting": "[2]; fed 100 mM D-chiro-inositol in 1% sucrose solution 5 days, 7 days slow drying", "value": "7.21 μg/embryo and 1.71 μg/embryo and 0 μg/embryo"}, {"measurement": "Soluble carbohydrates in embryos of seeds from buckwheat explants", "setting": "[2]; fed 100 mM D-chiro-inositol in 1% sucrose solution, after 1 day feeding", "value": 0, "unit": "μg/embryo"}, {"measurement": "Soluble carbohydrates in embryos of seeds from buckwheat explants", "setting": "[2]; fed 100 mM D-chiro-inositol in 1% sucrose solution, after 5 days feeding", "value": "3.15 μg/embryo and 3.75 μg/embryo and 2.62 μg/embryo"}, {"measurement": "Soluble carbohydrates in embryos of seeds from buckwheat explants", "setting": "[2]; fed 100 mM D-pinitol in 1% sucrose solution 5 days, 2 days slow drying", "value": "10.69 μg/embryo and 7.75 μg/embryo and 2.79 μg/embryo"}, {"measurement": "Soluble carbohydrates in embryos of seeds from buckwheat explants", "setting": "[2]; fed 100 mM D-pinitol in 1% sucrose solution 5 days, 4 days slow drying", "value": "2.68 μg/embryo and 4.14 μg/embryo and 3.31 μg/embryo"}, {"measurement": "Soluble carbohydrates in embryos of seeds from buckwheat explants", "setting": "[2]; fed 100 mM D-pinitol in 1% sucrose solution 5 days, 7 days slow drying", "value": "0 μg/embryo (2×) and 1.24 μg/embryo"}, {"measurement": "Soluble carbohydrates in embryos of seeds from buckwheat explants", "setting": "[2]; fed 100 mM D-pinitol in 1% sucrose solution, after 1 day feeding", "value": 2.51, "unit": "μg/embryo"}, {"measurement": "Soluble carbohydrates in embryos of seeds from buckwheat explants", "setting": "[2]; fed 100 mM D-pinitol in 1% sucrose solution, after 5 days feeding", "value": "0 μg/embryo and 3.26 μg/embryo and 3.40 μg/embryo"}, {"measurement": "Soluble carbohydrates in embryos of seeds from buckwheat explants", "setting": "[2]; fed 100 mM myo-inositol in 1% sucrose solution 5 days, 2 days slow drying", "value": "10.36 μg/embryo and 3.46 μg/embryo"}, {"measurement": "Soluble carbohydrates in embryos of seeds from buckwheat explants", "setting": "[2]; fed 100 mM myo-inositol in 1% sucrose solution 5 days, 4 days slow drying", "value": "8.41 μg/embryo and 4.79 μg/embryo"}, {"measurement": "Soluble carbohydrates in embryos of seeds from buckwheat explants", "setting": "[2]; fed 100 mM myo-inositol in 1% sucrose solution 5 days, 7 days slow drying", "value": "2.09 μg/embryo and 0 μg/embryo"}, {"measurement": "Soluble carbohydrates in embryos of seeds from buckwheat explants", "setting": "[2]; fed 100 mM myo-inositol in 1% sucrose solution, after 1 day feeding", "value": 0, "unit": "μg/embryo"}, {"measurement": "Soluble carbohydrates in embryos of seeds from buckwheat explants", "setting": "[2]; fed 100 mM myo-inositol in 1% sucrose solution, after 5 days feeding", "value": "19.19 μg/embryo and 3.71 μg/embryo"}, {"measurement": "Soluble carbohydrates in embryos of seeds from buckwheat explants", "setting": "[2]; fed 1% sucrose (without cyclitols) solution 5 days, 2 days slow drying", "value": "15.87 μg/embryo and 10.02 μg/embryo and 5.03 μg/embryo"}, {"measurement": "Soluble carbohydrates in embryos of seeds from buckwheat explants", "setting": "[2]; fed 1% sucrose (without cyclitols) solution 5 days, 4 days slow drying", "value": "26.38 μg/embryo and 8.45 μg/embryo"}, {"measurement": "Soluble carbohydrates in embryos of seeds from buckwheat explants", "setting": "[2]; fed 1% sucrose (without cyclitols) solution 5 days, 7 days slow drying", "value": "0 μg/embryo and 5.93 μg/embryo"}, {"measurement": "Soluble carbohydrates in embryos of seeds from buckwheat explants", "setting": "[2]; fed 1% sucrose (without cyclitols) solution, after 5 days feeding", "value": "1.47 μg/embryo and 19.03 μg/embryo"}, {"measurement": "Soluble carbohydrates in buckwheat embryos", "setting": "[3]; seeds matured at 15° C.", "value": 0, "unit": "μg/embryo"}, {"measurement": "Soluble carbohydrates in buckwheat embryos", "setting": "[3]; seeds matured at 22° C.", "value": "1.57 ± 0.79", "unit": "μg/embryo"}, {"measurement": "Soluble carbohydrates in buckwheat embryos", "setting": "[3]; seeds matured at 30° C.", "value": "1.60 ± 0.04", "unit": "μg/embryo"}, {"measurement": "Accumulation of soluble carbohydrates in soybean axis", "setting": "[4]; [5]", "value": 6.29, "unit": "μg/axis"}, {"measurement": "Accumulation of soluble carbohydrates in soybean cotyledon", "setting": "[4]; [5]", "value": 42.99, "unit": "μg/cotyledon"}, {"measurement": "Accumulation of soluble carbohydrates in soybean seed coat", "setting": "[4]; [5]", "value": 0, "unit": "μg/seed coat"}, {"measurement": "Accumulation of soluble carbohydrates in soybean axis", "setting": "[4]; [6]", "value": 10.19, "unit": "μg/axis"}, {"measurement": "Accumulation of soluble carbohydrates in soybean cotyledon", "setting": "[4]; [6]", "value": 42.35, "unit": "μg/cotyledon"}, {"measurement": "Accumulation of soluble carbohydrates in soybean seed coat", "setting": "[4]; [6]", "value": 1.30, "unit": "μg/seed coat"}, {"measurement": "Accumulation of soluble carbohydrates in soybean axis", "setting": "[4]; [7]", "value": 3.46, "unit": "μg/axis"}, {"measurement": "Accumulation of soluble carbohydrates in soybean cotyledon", "setting": "[4]; [7]", "value": 15.89, "unit": "μg/cotyledon"}, {"measurement": "Accumulation of soluble carbohydrates in soybean seed coat", "setting": "[4]; [7]", "value": 0, "unit": "μg/seed coat"}, {"measurement": "Accumulation of soluble carbohydrates in soybean axis", "setting": "[4]; [8]", "value": 2.25, "unit": "μg/axis"}, {"measurement": "Accumulation of soluble carbohydrates in soybean cotyledon", "setting": "[4]; [8]", "value": 32.53, "unit": "μg/cotyledon"}, {"measurement": "Accumulation of soluble carbohydrates in soybean seed coat", "setting": "[4]; [8]", "value": 1.19, "unit": "μg/seed coat"}, {"measurement": "Accumulation of soluble carbohydrates in soybean axis", "setting": "[4]; [9]", "value": 4.23, "unit": "μg/axis"}, {"measurement": "Accumulation of soluble carbohydrates in soybean cotyledon", "setting": "[4]; [9]", "value": 11.02, "unit": "μg/cotyledon"}, {"measurement": "Accumulation of soluble carbohydrates in soybean seed coat", "setting": "[4]; [9]", "value": 0, "unit": "μg/seed coat"}, {"measurement": "Accumulation of soluble carbohydrates in soybean axis", "setting": "[4]; [10]", "value": 2.27, "unit": "μg/axis"}, {"measurement": "Accumulation of soluble carbohydrates in soybean cotyledon", "setting": "[4]; [10]", "value": 9.34, "unit": "μg/cotyledon"}, {"measurement": "Accumulation of soluble carbohydrates in soybean seed coat", "setting": "[4]; [10]", "value": 1.60, "unit": "μg/seed coat"}, {"measurement": "Accumulation of soluble carbohydrates in soybean axis", "setting": "[4]; [11]", "value": 0, "unit": "μg/axis"}, {"measurement": "Accumulation of soluble carbohydrates in soybean cotyledon", "setting": "[4]; [11]", "value": 14.29, "unit": "μg/cotyledon"}, {"measurement": "Accumulation of soluble carbohydrates in soybean axis", "setting": "[4]; [12]", "value": 2.71, "unit": "μg/axis"}, {"measurement": "Accumulation of soluble carbohydrates in soybean cotyledon", "setting": "[4]; [12]", "value": 0, "unit": "μg/cotyledon"}, {"measurement": "Accumulation of soluble carbohydrates in soybean axis", "setting": "[4]; [13]", "value": 6.40, "unit": "μg/axis"}, {"measurement": "Accumulation of soluble carbohydrates in soybean cotyledon", "setting": "[4]; [13]", "value": 28.42, "unit": "μg/cotyledon"}, {"measurement": "Accumulation of soluble carbohydrates in soybean seed coat", "setting": "[4]; [13]", "value": 0, "unit": "μg/seed coat"}, {"measurement": "Accumulation of soluble carbohydrates in soybean axis", "setting": "[4]; [14]", "value": 10.37, "unit": "μg/axis"}, {"measurement": "Accumulation of soluble carbohydrates in soybean cotyledon", "setting": "[4]; [14]", "value": 40.81, "unit": "μg/cotyledon"}, {"measurement": "Accumulation of soluble carbohydrates in soybean seed coat", "setting": "[4]; [14]", "value": 0, "unit": "μg/seed coat"}, {"measurement": "Accumulation of soluble carbohydrates in soybean axis", "setting": "[4]; [15]", "value": 5.46, "unit": "μg/axis"}, {"measurement": "Accumulation of soluble carbohydrates in soybean cotyledon", "setting": "[4]; [15]", "value": 20.87, "unit": "μg/cotyledon"}, {"measurement": "Accumulation of soluble carbohydrates in soybean seed coat", "setting": "[4]; [15]", "value": 0, "unit": "μg/seed coat"}, {"measurement": "Accumulation of soluble carbohydrates in soybean axis", "setting": "[4]; 3 days transport of sucrose (1%) and D-pinitol (50 mM), after 4 days slow drying, Rep 2", "value": 2.87, "unit": "μg/axis"}]}]}
